# The list shows a part of the results.
# B1: PX14343I-pdi-501-30-501 (Parabacteroides distasonis) (protein)
# chain: SDQYSTETFWKTKEHASAGIMGCYNALKLWRSLHTMEFDMLTANAMPYNEANGTQAIGKGEHLSTTALIGSLWKNCYVGIGRTNTFIANVGGVDMDESEKAKMVGEAKFLRAFYYLSLVDKFGGVPLIIDAPNADEQAELPRNSKEEVVNQIVKDLEEAAAVLPDTYASSDLGRATKGAALALKARTLLYNSRWAEAAQAAKQVMESGVYQLFNDYRHFFSEDNKYNCEVIFDIEAKLPEYPTDYDQNIWRLNRPAPLKELVDTYLCVDGKTIEESPLYDPTRPYENRDPRLLKSIVCIGYPYLGKTITKEDVATTGFGVKKYTSYEDDVTIPLVERSAFNFILIRYAEVLLTYAEAQNEASGPDQSVYDAINQLRRRPDINMPEVPKGLTKDQMREVIRRERRIELTFEGLYYSDILRWKTAEKENNGMMHNYEGIEVVKRSFNPKRDYLWPIPYNQTVLNPNLEQNPNWD
# Assays:
# Assay in all cases: glycan array binding signal (z-score within array); higher = stronger binding
# Conditions in all cases: glycan notation: IUPAC condensed, linker removed
# [1] = target: Fuc(a1-2)[GalNAc(a1-3)]Gal(b1-3)GlcNAc(b1-6)GalNAc
# How it was run: (§1)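 Glycan array data were curated from 3228 arrays in the Consortium for Functional Glycomics database and kept only where the protein sequence was available. Glycan names were converted to IUPAC-condensed notation, and columns mapping to the same glycan were averaged. The binding signal is a within-array Z-score, averaged across arrays of the same protein sequence at different concentrations or buffers and across linkers. Negative Z-scores can be read as non-binding.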
# [2] = target: Fuc(a1-2)[GalNAc(a1-3)]Gal(b1-4)Glc
# How it was run: as §1
# [3] = target: Fuc(a1-2)[GalNAc(a1-3)]Gal(b1-4)GlcNAc
# How it was run: as §1
# [4] = target: Fuc(a1-2)[GalNAc(a1-3)]Gal(b1-4)GlcNAc(b1-2)Man
# How it was run: as §1
# [5] = target: Fuc(a1-2)[GalNAc(a1-3)]Gal(b1-4)GlcNAc(b1-2)Man(a1-3)[Fuc(a1-2)[GalNAc(a1-3)]Gal(b1-4)GlcNAc(b1-2)Man(a1-6)]Man(b1-4)GlcNAc(b1-4)GlcNAc
# How it was run: as §1
# [6] = target: Fuc(a1-2)[GalNAc(a1-3)]Gal(b1-4)GlcNAc(b1-2)Man(a1-3)[Fuc(a1-2)[GalNAc(a1-3)]Gal(b1-4)GlcNAc(b1-2)Man(a1-6)]Man(b1-4)GlcNAc(b1-4)[Fuc(a1-6)]GlcNAc
# How it was run: as §1
# [7] = target: Fuc(a1-2)[GalNAc(a1-3)]Gal(b1-4)GlcNAc(b1-3)Gal(b1-4)GlcNAc
# How it was run: as §1
# [8] = target: Fuc(a1-2)[GalNAc(a1-3)]Gal(b1-4)GlcNAc(b1-3)Gal(b1-4)GlcNAc(b1-3)Gal(b1-4)GlcNAc
# How it was run: as §1
# [9] = target: Fuc(a1-2)[GalNAc(a1-3)]Gal(b1-4)GlcNAc(b1-3)GalNAc
# How it was run: as §1
# [10] = target: Fuc(a1-2)[GalNAc(a1-3)]Gal(b1-4)GlcNAc(b1-3)[Fuc(a1-2)[GalNAc(a1-3)]Gal(b1-4)GlcNAc(b1-6)]GalNAc
# How it was run: as §1
# [11] = target: Fuc(a1-2)[GalNAc(a1-3)]Gal(b1-4)GlcNAc(b1-6)GalNAc
# How it was run: as §1
# [12] = target: Fuc(a1-2)[GalNAc(a1-3)]Gal(b1-4)[Fuc(a1-3)]GlcNAc
# How it was run: as §1
# [13] = target: Fuc(a1-2)[GalNAc(a1-3)]Gal(b1-4)[Fuc(a1-3)]GlcNAc(b1-3)GalNAc
# How it was run: as §1
# [14] = target: Fuc(a1-2)[GalNAc(a1-4)]Gal(b1-4)GlcNAc
# How it was run: as §1
# [15] = target: Fuc(a1-2)[GalNAc(b1-3)]Gal
# How it was run: as §1
# Fuc(a1-3)GlcNAc = target: Fuc(a1-3)GlcNAc
# How it was run: as §1
# [16] = target: Fuc(a1-3)[Gal(b1-4)]Glc6S
# How it was run: as §1
# [17] = target: Fuc(a1-3)[Gal(b1-4)]GlcNAc
# How it was run: as §1
# [18] = target: Fuc(a1-3)[Gal(b1-4)]GlcNAc(b1-2)Man
# How it was run: as §1
# [19] = target: Fuc(a1-3)[Gal(b1-4)]GlcNAc(b1-2)Man(a1-3)[Fuc(a1-3)[Gal(b1-4)]GlcNAc(b1-2)Man(a1-6)]Man(b1-4)GlcNAc(b1-4)GlcNAc
# How it was run: as §1
# [20] = target: Fuc(a1-3)[Gal(b1-4)]GlcNAc(b1-2)Man(a1-3)[Fuc(a1-3)[Gal(b1-4)]GlcNAc(b1-2)Man(a1-6)]Man(b1-4)GlcNAc(b1-4)[Fuc(a1-6)]GlcNAc
# How it was run: as §1
# [21] = target: Fuc(a1-3)[Gal(b1-4)]GlcNAc(b1-3)Gal(b1-3)[Fuc(a1-4)]GlcNAc
# How it was run: as §1
# [22] = target: Fuc(a1-3)[Gal(b1-4)]GlcNAc(b1-3)Gal(b1-4)[Fuc(a1-3)]GlcNAc
# How it was run: as §1
# [23] = target: Fuc(a1-3)[Gal(b1-4)]GlcNAc(b1-3)Gal(b1-4)[Fuc(a1-3)]GlcNAc(b1-3)Gal(b1-4)[Fuc(a1-3)]GlcNAc
# How it was run: as §1
# [24] = target: Fuc(a1-3)[Gal(b1-4)]GlcNAc(b1-3)GalNAc
# How it was run: as §1
# [25] = target: Fuc(a1-3)[Gal(b1-4)]GlcNAc(b1-6)GalNAc
# How it was run: as §1
# [26] = target: Fuc(a1-3)[Gal(b1-4)]GlcNAc(b1-6)[Gal(b1-3)GlcNAc(b1-3)]Gal(b1-4)Glc
# How it was run: as §1
# [27] = target: Fuc(a1-3)[Gal(b1-4)]GlcNAc6S
# How it was run: as §1
# [28] = target: Fuc(a1-3)[Gal3S(b1-4)]Glc
# How it was run: as §1
# [29] = target: Fuc(a1-3)[Gal3S(b1-4)]GlcNAc
# How it was run: as §1
# [30] = target: Fuc(a1-3)[Gal3S(b1-4)]GlcNAc6S
# How it was run: as §1
# [31] = target: Fuc(a1-3)[GalNAc(b1-4)]GlcNAc
# How it was run: as §1
# [32] = target: Fuc(a1-3)[GalNAc(b1-4)]GlcNAc6S
# How it was run: as §1
# Fuc(a1-4)GlcNAc = target: Fuc(a1-4)GlcNAc
# How it was run: as §1
# Fuc(b1-3)GlcNAc = target: Fuc(b1-3)GlcNAc
# How it was run: as §1
# Gal(a1-2)Gal = target: Gal(a1-2)Gal
# How it was run: as §1
# Gal(a1-3)Gal = target: Gal(a1-3)Gal
# How it was run: as §1
# Gal(a1-3)Gal(b1-3)GlcNAc = target: Gal(a1-3)Gal(b1-3)GlcNAc
# How it was run: as §1
# [33] = target: Gal(a1-3)Gal(b1-3)GlcNAc(b1-2)Man
# How it was run: as §1
# [34] = target: Gal(a1-3)Gal(b1-3)GlcNAc(b1-2)Man(a1-3)[Gal(a1-3)Gal(b1-3)GlcNAc(b1-2)Man(a1-6)]Man(b1-4)GlcNAc(b1-4)GlcNAc
# How it was run: as §1
# [35] = target: Gal(a1-3)Gal(b1-3)GlcNAc(b1-3)GalNAc
# How it was run: as §1
# [36] = target: Gal(a1-3)Gal(b1-3)GlcNAc(b1-6)GalNAc
# How it was run: as §1
# [37] = target: Gal(a1-3)Gal(b1-3)[Fuc(a1-4)]GlcNAc(b1-2)Man(a1-3)[Gal(a1-3)Gal(b1-3)[Fuc(a1-4)]GlcNAc(b1-2)Man(a1-6)]Man(b1-4)GlcNAc(b1-4)GlcNAc
# How it was run: as §1
# Gal(a1-3)Gal(b1-4)Glc = target: Gal(a1-3)Gal(b1-4)Glc
# How it was run: as §1
# Gal(a1-3)Gal(b1-4)GlcNAc = target: Gal(a1-3)Gal(b1-4)GlcNAc
# How it was run: as §1
binder,measurement,setting,value
B1,glycan array binding signal (z-score),[1],0.502
same,glycan array binding signal (z-score),[2],0.669
same,glycan array binding signal (z-score),[3],-0.707
same,glycan array binding signal (z-score),[4],-0.767
same,glycan array binding signal (z-score),[5],0.835
same,glycan array binding signal (z-score),[6],-0.589
same,glycan array binding signal (z-score),[7],-0.547
same,glycan array binding signal (z-score),[8],0.571
same,glycan array binding signal (z-score),[9],-0.313
same,glycan array binding signal (z-score),[10],0.856
same,glycan array binding signal (z-score),[11],-0.434
same,glycan array binding signal (z-score),[12],-0.393
same,glycan array binding signal (z-score),[13],0.679
same,glycan array binding signal (z-score),[14],-0.33
same,glycan array binding signal (z-score),[15],-0.899
same,glycan array binding signal (z-score),Fuc(a1-3)GlcNAc,-0.254
same,glycan array binding signal (z-score),[16],1.06
same,glycan array binding signal (z-score),[17],-0.452
same,glycan array binding signal (z-score),[18],0.571
same,glycan array binding signal (z-score),[19],1.25
same,glycan array binding signal (z-score),[20],0.555
same,glycan array binding signal (z-score),[21],0.052
same,glycan array binding signal (z-score),[22],0.233
same,glycan array binding signal (z-score),[23],-0.451
same,glycan array binding signal (z-score),[24],-0.832
same,glycan array binding signal (z-score),[25],0.867
same,glycan array binding signal (z-score),[26],-0.159
same,glycan array binding signal (z-score),[27],-0.065
same,glycan array binding signal (z-score),[28],0.068
same,glycan array binding signal (z-score),[29],-0.287
same,glycan array binding signal (z-score),[30],-0.368
same,glycan array binding signal (z-score),[31],-0.859
same,glycan array binding signal (z-score),[32],-0.272
same,glycan array binding signal (z-score),Fuc(a1-4)GlcNAc,-0.627
same,glycan array binding signal (z-score),Fuc(b1-3)GlcNAc,0.522
same,glycan array binding signal (z-score),Gal(a1-2)Gal,-0.51
same,glycan array binding signal (z-score),Gal(a1-3)Gal,-0.312
same,glycan array binding signal (z-score),Gal(a1-3)Gal(b1-3)GlcNAc,-0.895
same,glycan array binding signal (z-score),[33],-0.295
same,glycan array binding signal (z-score),[34],0.555
same,glycan array binding signal (z-score),[35],-0.113
same,glycan array binding signal (z-score),[36],-0.687
same,glycan array binding signal (z-score),[37],0.537
same,glycan array binding signal (z-score),Gal(a1-3)Gal(b1-4)Glc,0.05
same,glycan array binding signal (z-score),Gal(a1-3)Gal(b1-4)GlcNAc,0.417

# Part of the list above, bar-delimited:
binder | measurement | setting | value
B1 | glycan array binding signal (z-score) | [3] | -0.707
same | glycan array binding signal (z-score) | [10] | 0.856
same | glycan array binding signal (z-score) | Gal(a1-3)Gal(b1-4)GlcNAc | 0.417
